From publication PMC7594058

The chains behind the UniProt entries cited, without tags or fusion partners.
UniProt P03072: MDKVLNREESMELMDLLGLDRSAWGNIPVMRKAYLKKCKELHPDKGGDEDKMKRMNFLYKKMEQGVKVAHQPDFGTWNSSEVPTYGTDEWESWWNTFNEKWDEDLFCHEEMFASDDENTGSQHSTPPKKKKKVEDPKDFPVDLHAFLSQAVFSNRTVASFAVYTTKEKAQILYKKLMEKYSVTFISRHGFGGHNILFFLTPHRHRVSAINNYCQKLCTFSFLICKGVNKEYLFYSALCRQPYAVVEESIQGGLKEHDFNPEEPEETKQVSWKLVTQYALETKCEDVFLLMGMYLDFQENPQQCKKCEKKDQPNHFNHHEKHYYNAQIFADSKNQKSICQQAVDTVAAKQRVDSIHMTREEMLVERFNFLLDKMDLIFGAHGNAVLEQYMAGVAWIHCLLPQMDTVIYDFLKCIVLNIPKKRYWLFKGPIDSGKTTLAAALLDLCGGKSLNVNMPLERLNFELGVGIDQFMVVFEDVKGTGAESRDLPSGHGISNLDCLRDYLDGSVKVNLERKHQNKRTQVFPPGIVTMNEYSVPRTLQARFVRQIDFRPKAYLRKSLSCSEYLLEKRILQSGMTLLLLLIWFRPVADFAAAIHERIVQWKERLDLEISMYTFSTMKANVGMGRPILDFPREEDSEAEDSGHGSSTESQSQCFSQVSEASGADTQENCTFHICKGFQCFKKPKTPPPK

B1: Dihydropyrimidine dehydrogenase [NADP (+)] (protein, UniProt Q12882 4-1025)
chain: VLSKDSADIESILALNPRTQTHATLCSTSAKKLDKKHWKRNPDKNCFNCEKLENNFDDIKHTTLGERGALREAMRCLKCADAPCQKSCPTNLDIKSFITSIANKNYYGAAKMIFSDNPLGLTCGMVCPTSDLCVGGCNLYATEEGPINIGGLQQFATEVFKAMSIPQIRNPSLPPPEKMSEAYSAKIALFGAGPASISCASFLARLGYSDITIFEKQEYVGGLSTSEIPQFRLPYDVVNFEIELMKDLGVKIICGKSLSVNEMTLSTLKEKGYKAAFIGIGLPEPNKDAIFQGLTQDQGFYTSKDFLPLVAKGSKAGMCACHSPLPSIRGVVIVLGAGDTAFDCATSALRCGARRVFIVFRKGFVNIRAVPEEMELAKEEKCEFLPFLSPRKVIVKGGRIVAMQFVRTEQDETGKWNEDEDQMVHLKADVVISAFGSVLSDPKVKEALSPIKFNRWGLPEVDPETMQTSEAWVFAGGDVVGLANTTVESVNDGKQASWYIHKYVQSQYGASVSAKPELPLFYTPIDLVDISVEMAGLKFINPFGLASATPATSTSMIRRAFEAGWGFALTKTFSLDKDIVTNVSPRIIRGTTSGPMYGPGQSSFLNIELISEKTAAYWCQSVTELKADFPDNIVIASIMCSYNKNDWTELAKKSEDSGADALELNLSCPHGMGERGMGLACGQDPELVRNICRWVRQAVQIPFFAKLTPNVTDIVSIARAAKEGGANGVTATNTVSGLMGLKSDGTPWPAVGIAKRTTYGGVSGTAIRPIALRAVTSIARALPGFPILATGGIDSAESGLQFLHSGASVLQVCSAIQNQDFTVIEDYCTGLKALLYLKSIEELQDWDGQSPATVSHQKGKPVPRIAELMDKKLPSFGPYLEQRKKIIAENKIRLKEQNVAFSPLKRNCFIPKRPIPTIKDVIGKALQYLGTFGELSNVEQVVAMIDEEMCINCGKCYMTCNDSGYQAIQFDPETHLPTITDTCTGCTLCLSVCPIVDCIKMVSRTTPYEPKRGVPLSVNPVC
B2: Non-structural maintenance of chromosomes element 1 homolog (protein, UniProt Q8WV22 1-266)
chain: MQGSTRRMGVMTDVHRRFLQLLMTHGVLEEWDVKRLQTHCYKVHDRNATVDKLEDFINNINSVLESLYIEIKRGVTEDDGRPIYALVNLATTSISKMATDFAENELDLFRKALELIIDSETGFASSTNILNLVDQLKGKKMRKKEAEQVLQKFVQNKWLIEKEGEFTLHGRAILEMEQYIRETYPDAVKICNICHSLLIQGQSCETCGIRMHLPCVAKYFQSNAEPRCPHCNDYWPHEIPKVFDPEKERESGVLKSNKKSLRSRQH
B3: Structural maintenance of chromosomes protein 6 (protein, UniProt Q96SB8 1-1091)
chain: MAKRKEENFSSPKNAKRPRQEELEDFDKDGDEDECKGTTLTAAEVGIIESIHLKNFMCHSMLGPFKFGSNVNFVVGNNGSGKSAVLTALIVGLGGRAVATNRGSSLKGFVKDGQNSADISITLRNRGDDAFKASVYGNSILIQQHISIDGSRSYKLKSATGSVVSTRKEELIAILDHFNIQVDNPVSVLTQEMSKQFLQSKNEGDKYKFFMKATQLEQMKEDYSYIMETKERTKEQIHQGEERLTELKRQCVEKEERFQSIAGLSTMKTNLESLKHEMAWAVVNEIEKQLNAIRDNIKIGEDRAARLDRKMEEQQVRLNEAEQKYKDIQDKLEKISEETNARAPECMALKADVVAKKRAYNEAEVLYNRSLNEYKALKKDDEQLCKRIEELKKSTDQSLEPERLERQKKISWLKERVKAFQNQENSVNQEIEQFQQAIEKDKEEHGKIKREELDVKHALSYNQRQLKELKDSKTDRLKRFGPNVPALLEAIDDAYRQGHFTYKPVGPLGACIHLRDPELALAIESCLKGLLQAYCCHNHADERVLQALMKRFYLPGTSRPPIIVSEFRNEIYDVRHRAAYHPDFPTVLTALEIDNAVVANSLIDMRGIETVLLIKNNSVARAVMQSQKPPKNCREAFTADGDQVFAGRYYSSENTRPKFLSRDVDSEISDLENEVENKTAQILNLQQHLSALEKDIKHNEELLKRCQLHYKELKMKIRKNISEIRELENIEEHQSVDIATLEDEAQENKSKMKMVEEHMEQQKENMEHLKSLKIEAENKYDAIKFKINQLSELADPLKDELNLADSEVDNQKRGKRHYEEKQKEHLDTLNKKKRELDMKEKELEEKMSQARQICPERIEVEKSASILDKEINRLRQKIQAEHASHGDREEIMRQYQEARETYLDLDSKVRTLKKFIKLLGEIMEHRFKTYQQFRRCLTLRCKLYFDNLLSQRAYCGKMNFDHKNETLSISVQPGEGNKAAFNDMRALSGGERSFSTVCFILSLWSIAESPFRCLDEFDVYMDMVNRRIAMDLILKMADSQRFRQFILLTPQSMSSLPSSKLIRILRMSDPERGQTTLPFRPVTQEEDDDQR
B4: DnaJ homolog subfamily C member 1 (protein, UniProt Q8IXB1 33-793)
chain: DQDFYSLLGVSKTASSREIRQAFKKLALKLHPDKNPNNPNAHGDFLKINRAYEVLKDEDLRKKYDKYGEKGLEDNQGGQYESWNYYRYDFGIYDDDPEIITLERREFDAAVNSGELWFVNFYSPGCSHCHDLAPTWRDFAKEVDGLLRIGAVNCGDDRMLCRMKGVNSYPSLFIFRSGMAPVKYHGDRSKESLVSFAMQHVRSTVTELWTGNFVNSIQTAFAAGIGWLITFCSKGGDCLTSQTRLRLSGMLDGLVNVGWMDCATQDNLCKSLDITTSTTAYFPPGATLNNKEKNSILFLNSLDAKEIYLEVIHNLPDFELLSANTLEDRLAHHRWLLFFHFGKNENSNDPELKKLKTLLKNDHIQVGRFDCSSAPDICSNLYVFQPSLAVFKGQGTKEYEIHHGKKILYDILAFAKESVNSHVTTLGPQNFPANDKEPWLVDFFAPWCPPCRALLPELRRASNLLYGQLKFGTLDCTVHEGLCNMYNIQAYPTTVVFNQSNIHEYEGHHSAEQILEFIEDLMNPSVVSLTPTTFNELVTQRKHNEVWMVDFYSPWCHPCQVLMPEWKRMARTLTGLINVGSIDCQQYHSFCAQENVQRYPEIRFFPPKSNKAYHYHSYNGWNRDAYSLRIWGLGFLPQVSTDLTPQTFSEKVLQGKNHWVIDFYAPWCGPCQNFAPEFELLARMIKGKVKAGKVDCQAYAQTCQKAGIRAYPTVKFYFYERAKRNFQEEQINTRDAKAIAALISEKLETLRNQGKRNKDEL
B5: NACHT, LRR and PYD domains-containing protein 2 (protein, UniProt Q9NX02 1-1062)
chain: MVSSAQMGFNLQALLEQLSQDELSKFKYLITTFSLAHELQKIPHKEVDKADGKQLVEILTTHCDSYWVEMASLQVFEKMHRMDLSERAKDEVREAALKSFNKRKPLSLGITRKERPPLDVDEMLERFKTEAQAFTETKGNVICLGKEVFKGKKPDKDNRCRYILKTKFREMWKSWPGDSKEVQVMAERYKMLIPFSNPRVLPGPFSYTVVLYGPAGLGKTTLAQKLMLDWAEDNLIHKFKYAFYLSCRELSRLGPCSFAELVFRDWPELQDDIPHILAQARKILFVIDGFDELGAAPGALIEDICGDWEKKKPVPVLLGSLLNRVMLPKAALLVTTRPRALRDLRILAEEPIYIRVEGFLEEDRRAYFLRHFGDEDQAMRAFELMRSNAALFQLGSAPAVCWIVCTTLKLQMEKGEDPVPTCLTRTGLFLRFLCSRFPQGAQLRGALRTLSLLAAQGLWAQTSVLHREDLERLGVQESDLRLFLDGDILRQDRVSKGCYSFIHLSFQQFLTALFYTLEKEEEEDRDGHTWDIGDVQKLLSGVERLRNPDLIQAGYYSFGLANEKRAKELEATFGCRMSPDIKQELLRCDISCKGGHSTVTDLQELLGCLYESQEEELVKEVMAQFKEISLHLNAVDVVPSSFCVKHCRNLQKMSLQVIKENLPENVTASESDAEVERSQDDQHMLPFWTDLCSIFGSNKDLMGLAINDSFLSASLVRILCEQIASDTCHLQRVVFKNISPADAHRNLCLALRGHKTVTYLTLQGNDQDDMFPALCEVLRHPECNLRYLGLVSCSATTQQWADLSLALEVNQSLTCVNLSDNELLDEGAKLLYTTLRHPKCFLQRLSLENCHLTEANCKDLAAVLVVSRELTHLCLAKNPIGNTGVKFLCEGLRYPECKLQTLVLWNCDITSDGCCDLTKLLQEKSSLLCLDLGLNHIGVKGMKFLCEALRKPLCNLRCLWLWGCSIPPFSCEDLCSALSCNQSLVTLDLGQNPLGSSGVKMLFETLTCSSGTLRTLRLKIDDFNDELNKLLEEIEEKNPQLIIDTEKHHPWAERPSSHDFMI
B6: Tropomodulin-3 (protein, UniProt Q9NYL9 1-352)
chain: MALPFRKDLEKYKDLDEDELLGNLSETELKQLETVLDDLDPENALLPAGFRQKNQTSKSTTGPFDREHLLSYLEKEALEHKDREDYVPYTGEKKGKIFIPKQKPVQTFTEEKVSLDPELEEALTSASDTELCDLAAILGMHNLITNTKFCNIMGSSNGVDQEHFSNVVKGEKILPVFDEPPNPTNVEESLKRTKENDAHLVEVNLNNIKNIPIPTLKDFAKALETNTHVKCFSLAATRSNDPVATAFAEMLKVNKTLKSLNVESNFITGVGILALIDALRDNETLAELKIDNQRQQLGTAVELEMAKMLEENTNILKFGYQFTQQGPRTRAANAITKNNDLVRKRRVEGDHQ
B7: Unconventional myosin-Id (protein, UniProt O94832 1-1006)
chain: MAEQESLEFGKADFVLMDTVSMPEFMANLRLRFEKGRIYTFIGEVVVSVNPYKLLNIYGRDTIEQYKGRELYERPPHLFAIADAAYKAMKRRSKDTCIVISGESGAGKTEASKYIMQYIAAITNPSQRAEVERVKNMLLKSNCVLEAFGNAKTNRNDNSSRFGKYMDINFDFKGDPIGGHINNYLLEKSRVIVQQPGERSFHSFYQLLQGGSEQMLRSLHLQKSLSSYNYIHVGAQLKSSINDAAEFRVVADAMKVIGFKPEEIQTVYKILAAILHLGNLKFVVDGDTPLIENGKVVSIIAELLSTKTDMVEKALLYRTVATGRDIIDKQHTEQEASYGRDAFAKAIYERLFCWIVTRINDIIEVKNYDTTIHGKNTVIGVLDIYGFEIFDNNSFEQFCINYCNEKLQQLFIQLVLKQEQEEYQREGIPWKHIDYFNNQIIVDLVEQQHKGIIAILDDACMNVGKVTDEMFLEALNSKLGKHAHFSSRKLCASDKILEFDRDFRIRHYAGDVVYSVIGFIDKNKDTLFQDFKRLMYNSSNPVLKNMWPEGKLSITEVTKRPLTAATLFKNSMIALVDNLASKEPYYVRCIKPNDKKSPQIFDDERCRHQVEYLGLLENVRVRRAGFAFRQTYEKFLHRYKMISEFTWPNHDLPSDKEAVKKLIERCGFQDDVAYGKTKIFIRTPRTLFTLEELRAQMLIRIVLFLQKVWRGTLARMRYKRTKAALTIIRYYRRYKVKSYIHEVARRFHGVKTMRDYGKHVKWPSPPKVLRRFEEALQTIFNRWRASQLIKSIPASDLPQVRAKVAAVEMLKGQRADLGLQRAWEGNYLASKPDTPQTSGTFVPVANELKRKDKYMNVLFSCHVRKVNRFSKVEDRAIFVTDRHLYKMDPTKQYKVMKTIPLYNLTGLSVSNGKDQLVVFHTKDNKDLIVCLFSKQPTHESRIGELVGVLVNHFKSEKRHLQVNVTNPVQCSLHGKKCTVSVETRLNQPQPDFTKNRSGFILSVPGN
B8: Carnosine N-methyltransferase (protein, UniProt Q8N4J0 1-409)
chain: MQRRRRPPPPTSRLPEGCGGGGGGSEEVEVQFSAGRWGSAAAVSAAAAAATRSTEEEEERLEREHFWKIINAFRYYGTSMHERVNRTERQFRSLPANQQKLLPQFLLHLDKIRKCIDHNQEILLTIVNDCIHMFENKEYGEDGNGKIMPASTFDMDKLKSTLKQFVRDWSETGKAERDACYQPIIKEILKNFPKERWDPSKVNILVPGAGLGRLAWEIAMLGYACQGNEWSFFMLFSSNFVLNRCSEINKYKLYPWIHQFSNNRRSADQIRPIFFPDVDPHSLPPGSNFSMTAGDFQEIYSECNTWDCIATCFFIDTAHNVIDYIDTIWKILKPGGIWINLGPLLYHFENLANELSIELSYEDIKNVVLQYGFKVEVEKESVLSTYTVNDLSMMKYYYECVLFVVRKPQ

Molecular target: T7-2xStrep-JCV LT-Ag (JC virus (JCV)) (UniProt P03072)
Test: affinity purification with mass spectrometry

Binder	binding
B1	binds
B2	binds
B3	binds
B4	binds
B5	binds
B6	binds
B7	binds
B8	binds

These are yes or no findings as the source states them, for the method shown. In cells and extracts the contact can be indirect. A yes stands for co-enrichment or nearness to the bait. Other partners may have been found.
